Test results published in PubChem BioAssay AID624297 (National Center for Advancing Translational Sciences (NCATS), 2012).
Among all 340,000 compounds or so, about 6,200 (1.8%) were called active. The inconclusive results got no clear call from the source; some entries with a clear call stand among them for comparison. The call rests on the fitted dose curve; in most records, active means well fitted activation curve with a large enough effect; inconclusive means small, poorly fitted or top-dose-only effect; inactive means no such curve, though single readings can be large or run the other way. Potencies of inconclusive entries are doubtful fits and often do not repeat.

Assay: A quantitative high throughput screen for small molecules that induce DNA re-replication in SW480 colon adenocarcinoma cells. Further: nearly all actives have a fitted effect of over 55% in size.
Conditions: Hoechst DNA content imaging, 48 h; series mostly up to 46.1 µM
How it was run: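 Image-based read-out: total Hoechst fluorescence of nuclei (405 nm excitation, 500-530 nm emission), with hits raising the fraction of high-intensity nuclei. SW480 colon cells incubated 48 hr with compounds at 37 C.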
Potency means the concentration at half of the fitted maximal effect.

SMILES	Potency
CC(C)(C)CN1CCC(Oc2cccc(C(=O)NCCCOc3cccnc3)c2)CC1	inconclusive: 29.1 µM [activator, single point]
COc1ccc(-n2c(O)c(C=Nc3ccccc3)c3ccccc3c2=O)cc1OC	inconclusive: 5.8 µM [activator, partial curve, poor fit]
COCCNC(=S)NN=C1CCCCC1	active: 18.4 µM
CCOc1ccc(-c2n[nH]c(C)c2-c2ccccc2OC)c(O)c1	inconclusive: 20.6 µM [activator, single point]
Clc1ccc(N=c2ssnc2Cl)cc1	inconclusive: 29.1 µM [activator, single point]
COc1ccc(CN(C)CC(O)COc2ccc(C(=O)c3ccccc3)cc2)c(OC)c1OC (centres undefined)	inconclusive: 20.6 µM [activator, single point]
COc1ccc(S(=O)(=O)NC2CC2)cc1C(=O)N1CCOCC1	inconclusive: 29.1 µM [activator, single point]
CC[C@H](C)[C@H](NC(N)=O)C(=O)NCCc1ccc(OC)cc1	inconclusive: 2.59 µM [activator, single point]
CC(=O)Nc1ccc(S(=O)(=O)NCC2CCC(C(=O)N3CCCCCC3)CC2)cc1 (centres undefined)	inconclusive: 0.164 µM [activator, full curve, poor fit]
CC(C)c1ccc(CNNC(=O)c2ccccc2)cc1	inconclusive: 18.4 µM [activator, single point]
O=C(NCCC1CCCCN1S(=O)(=O)c1ccc(Cl)cc1)C(=O)NCc1ccco1 (centres undefined)	inconclusive: 25.9 µM [activator, single point]
CC(C)(C)c1ccccc1NC(=O)CN1C(=O)NC(Cc2ccccc2)C1=O (centres undefined)	inactive
Cc1ccc(OCC(=O)NNC(=S)NC(=O)C(C)(C)C)c(Br)c1	inconclusive: 25.9 µM [activator, single point]
O=C(c1ccc([N+](=O)[O-])s1)N1CCN(c2ccccc2)CC1	inconclusive: 16.4 µM [activator, single point]
COc1ccc(NC(=O)Cn2c(=O)n(-c3ccc(CC(=O)NCc4ccco4)cc3)c(=O)c3ccccc32)cc1	inconclusive: 18.4 µM [activator, single point]
Cc1cccn2c(=O)c3cc(C(=O)NC4CCCC4)c(=N)n(C4CCCC4)c3nc12	active: 7.08 µM
Cc1nnc(-c2cccc(Br)c2)c2cn(-c3cccc(Br)c3)nc12	inactive
COc1ccccc1OCCn1cc(/C=N/NC(N)=S)c2ccccc21	inactive
O=C(Cc1ccc(Cl)cc1)N/N=C/c1ccccc1	inconclusive: 5.17 µM [activator, single point]

Two of the compounds above, bar-delimited:
SMILES | Potency
O=C(c1ccc([N+](=O)[O-])s1)N1CCN(c2ccccc2)CC1 | inconclusive: 16.4 µM [activator, single point]
O=C(Cc1ccc(Cl)cc1)N/N=C/c1ccccc1 | inconclusive: 5.17 µM [activator, single point]
